The source of these data is paper PMC5014551.

Chains of the proteins cited; added tags and fusions are not shown. Residues count along the entry.
UniProt P39522, residues 21-585: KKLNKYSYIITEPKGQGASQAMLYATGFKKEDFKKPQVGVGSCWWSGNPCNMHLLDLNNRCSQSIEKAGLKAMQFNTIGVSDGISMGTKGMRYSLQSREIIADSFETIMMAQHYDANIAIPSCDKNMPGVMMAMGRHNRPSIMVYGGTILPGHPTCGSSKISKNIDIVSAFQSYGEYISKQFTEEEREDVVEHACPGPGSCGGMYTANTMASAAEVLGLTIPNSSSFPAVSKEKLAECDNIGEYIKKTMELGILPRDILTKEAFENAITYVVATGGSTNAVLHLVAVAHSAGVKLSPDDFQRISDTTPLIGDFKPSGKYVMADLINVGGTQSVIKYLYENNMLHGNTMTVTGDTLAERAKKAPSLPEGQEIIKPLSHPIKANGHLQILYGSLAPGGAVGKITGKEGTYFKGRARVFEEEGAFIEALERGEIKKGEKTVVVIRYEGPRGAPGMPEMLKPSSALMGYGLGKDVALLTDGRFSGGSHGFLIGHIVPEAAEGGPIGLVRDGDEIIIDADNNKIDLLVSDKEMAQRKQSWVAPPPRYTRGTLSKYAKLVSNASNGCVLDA

These are yes or no findings as the source states them, for the method shown. Binding seen in cells or lysates may run through a third protein. These calls come from enrichment with a bait or labelling near it, and not all partners need be listed.

This experiment addresses T1, Bol3-Strep (S. cerevisiae) (UniProt P39724).
T1 sequence: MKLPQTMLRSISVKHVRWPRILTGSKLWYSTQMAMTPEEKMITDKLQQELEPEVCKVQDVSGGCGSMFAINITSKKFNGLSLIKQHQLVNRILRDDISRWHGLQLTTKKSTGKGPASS
The experiment can be described thus: affinity purification with mass spectrometry; Strep-tagged bait from low-copy plasmids in the corresponding single deletion mutants; Strep-Tactin purification from solubilized mitochondria; eluates analysed on a Q-Exactive; multiple independent analyses.

Nfu1 (endogenous): the binding entry is given as “binds weakly”.
For “dihydroxyacid dehydratase (Ilv3) (from UniProt P39522 21-585) (enzyme)”, the binding entry is listed as “binds”.
